From article PMC5923263
No constants are given. Whether binding was seen depends on the method and setting. For some assays here: A result given as binding can be weak or reduced; the word gives no strength. Tags and fused reporters may be left off the sequences shown.

Columns and labels:
[1] = target: T1, S-tagged TrxM_(C35S) (Synechocystis sp. PCC 6803) (UniProt P52231); experiment: mixed-disulfide trapping in an E. coli co-expression strain, non-reducing SDS-PAGE and immunoblot; His-Sll1961 and S-tagged TrxM_(C35S) co-expressed in E. coli Origami2 (DE3); soluble protein fraction on non-reducing 12% SDS-PAGE; detected with anti His-tag antibody and S-protein; without …
T1 sequence: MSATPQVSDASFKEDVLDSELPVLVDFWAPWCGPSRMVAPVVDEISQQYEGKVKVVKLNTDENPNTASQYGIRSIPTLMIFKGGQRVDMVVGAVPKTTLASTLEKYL

[2] = target: T1, S-tagged TrxM_(C35S) (Synechocystis sp. PCC 6803); experiment: mixed-disulfide trapping in an E. coli co-expression strain, non-reducing SDS-PAGE and immunoblot; as a1, but the soluble fraction was treated with 100 mM DTT before electrophoresis

| Substance | binding [1] | binding [2] |
| --- | --- | --- |
| His-tagged Sll1961 C124A (Synechocystis sp. PCC 6803) | binds |  |
| His-tagged Sll1961 C229A (Synechocystis sp. PCC 6803) | binds |  |
| His-tagged Sll1961 C307A (Synechocystis sp. PCC 6803) | no binding |  |
| His-tagged Sll1961 (wild type) (Synechocystis sp. PCC 6803) | binds | no binding (only with 100 mM DTT treatment) |
